# Data source: PubChem BioAssay AID602196 (INSERM, 2012)
# Aim: 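Genes whose knock-down alters cisplatin killing of lung cancer cells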
# System: human A549 lung cancer cells
# Reagents: siRNA pair against human genes
# Duration: 48 h transfection before cisplatin; time from cisplatin to read-out not stated
# Conditions: cisplatin at a dose killing half of control-siRNA cells; exact dose and duration not given
# Measurement: 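Shift in cisplatin death relative to control siRNA, from -50 (all cells die) to +50 (no cells die); siRNAs harmful on their own scored 0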
# Scale: two-siRNA summed score (-2 to +2): higher = both siRNAs protect from cisplatin killing; -2 means both sensitise
# Active means: 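Each siRNA scores 0 if harmful alone by LDH or WST-1, otherwise +1 if it reduces and -1 if it increases cisplatin killing; a gene is active when both siRNAs agree (sum +2 or -2)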
# Meaning of the calls: active = both siRNAs shift cisplatin killing the same way; inactive = no consistent shift, or siRNA harmful alone
# In all, the deposit lists about 23,000 reagents; this is a part drawn at random. 455 of all reagents (2%) count as active. 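Active includes both protection and sensitisation; some change values fall well beyond the stated -50 to +50 range.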 Entries without a mark were called inactive. The numbers tell different reagents against one gene apart. Not all columns of the deposit are shown. Not stated in the record: the amount of reagent.
Gene,reagent,two-siRNA summed score (-2 to +2)
LOC143034,1,0
IGFBP4,1,0
LGALS3,1,0
LGALS3,2,1
ART5,1,1
GUCA1B,1,-1
KCNJ8,1,0
DFFA,1,1
LOC339453,1,0
CLIP4,1,0
LOC389904,1,1
EXOC1,1,0
SUGT1P1,1,0
LOC440545,1,1
GALP,1,0
LOC388947,1,0
B3GAT1-DT,1,0
LOC442745,1,0
LOC401470,1,0
ATP5MG,1,1
FLJ35848,1,0
DYM,1,0
SH3BGRL2,1,0
CCDC178,1,0
BIRC5,1,0
ZNF644,1,0
LOC344167,1,0
FOXC1,1,0
RDH10,1,0
LOC81787 (retired record),1,0
CNOT11,1,-1
MROH8,1,1
FZD4,1,1
LOC400832,1,1
PRKRA,1,0
KHDC4,1,0
OR1E1,1,0
MTFR2,1,0
NPAS3,1,0

Reprinted from the listing (4 entries):
Gene,reagent,two-siRNA summed score (-2 to +2)
DFFA,1,1
LOC339453,1,0
CLIP4,1,0
LOC389904,1,1
